Experimental data published in patent US20130310407A1, “COMBINATIONS COMPRISING MACITENTAN FOR THE TREATMENT OF GLIOBLASTOMA MULTIFORME” (ACTELION PHARMACEUTICALS LTD., priority 2011, published 2013).
Some entries share one result that the patent states for a list of compounds.

System: luciferase labeled LN229 glioblastoma cells
Experiment: Luciferase labeled LN229 glioblastoma cells in nude mice brain: endothelin receptor antagonists in combination with temozolomide (Example 3)
Settings: atrasentan 10 mg/kg intraperitoneal daily; zibotentan 20 mg/kg oral daily; treatment from 21 days after cell injection

SMILES | time in which all mice became moribund and had to be euthanized
CCCCN(CCCC)C(=O)CN1C[C@H](c2ccc3c(c2)OCO3)[C@@H](C(=O)O)[C@@H]1c1ccc(OC)cc1 [Atrasentan, atrasentan] | 50 to 80 days
COc1nc(C)cnc1NS(=O)(=O)c1cccnc1-c1ccc(-c2nnco2)cc1 [Zibotentan, zibotentan] | 50 to 80 days
